Test results taken from PubChem BioAssay (Tox21).
Where “and” joins values, the source holds several entries; their conditions need not be identical. Equal entries are not always repeated. Inconclusive results, whose numbers are uncertain, are shown with a selection of clear calls. A potency beside an inconclusive call is a rough fit, not a confirmed value. A structure can be active in one record and inactive in another. Calls of active or inactive are those of the source. Calls come from the whole dose curve; as a rule, active = well fitted inhibition curve with a large enough effect in the repeat runs; inconclusive = weak or mixed curves; inactive = no such curve, though single readings can be large or run the other way.

The chains behind the UniProt entries cited, without tags or fusion partners.
UniProt P10635, whole entry, looked up: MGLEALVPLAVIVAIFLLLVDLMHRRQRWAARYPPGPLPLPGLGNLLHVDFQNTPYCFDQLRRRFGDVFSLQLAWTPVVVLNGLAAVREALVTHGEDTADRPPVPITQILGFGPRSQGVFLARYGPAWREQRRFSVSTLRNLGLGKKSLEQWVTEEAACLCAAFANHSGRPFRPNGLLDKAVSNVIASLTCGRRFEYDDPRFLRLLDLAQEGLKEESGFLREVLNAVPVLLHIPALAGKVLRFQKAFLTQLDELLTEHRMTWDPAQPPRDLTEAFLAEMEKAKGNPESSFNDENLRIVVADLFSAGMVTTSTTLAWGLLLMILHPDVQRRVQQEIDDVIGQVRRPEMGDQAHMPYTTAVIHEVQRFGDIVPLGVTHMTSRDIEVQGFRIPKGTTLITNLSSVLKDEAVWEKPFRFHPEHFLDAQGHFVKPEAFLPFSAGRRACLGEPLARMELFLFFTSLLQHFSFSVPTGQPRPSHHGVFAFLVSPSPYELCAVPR

What follows are compounds tested against Cytochrome P450 2D6 (Homo sapiens) (UniProt P10635) (assay: Cytochrome P450 Family 2 Subfamily D Member 6 (CYP2D6) small molecule antagonists: luciferase reporter qHTS assay (AID 1671196; note: nearly all actives have a fitted effect of over 50% in size)). Conditions: P450-Glo CYP2D6 enzyme assay, luciferin luminescence, 1 h; series mostly up to 115 µM; activity change, negative = inhibition: at the top concentration.
How it was run: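 Read-out is luminescence from luciferin formed by CYP2D6 turnover of a proluciferin substrate, recorded as relative luminescence units. Reactions ran 1 h at room temperature after NADPH regeneration solution was added.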
% is set by controls: 0 for no effect and ±100 for the full control effect; potency is the fitted concentration of half-maximal effect.

SMILES | Potency | activity change, negative = inhibition
c1cc2c(c(N3CCNCC3)c1)OCCO2 | inconclusive: 30.9 µM [inhibitor, partial curve] | –
Cc1cc(-c2ccc(N)c(C)c2)ccc1N | active: 3.21 µM [middle of 4 runs] | –
CC(C)CCCCCCCOP(=O)(Oc1ccccc1)Oc1ccccc1 | inconclusive: 20.1 µM [inhibitor, full curve, poor fit] | –
CCCCCCCCCCCOC(=O)c1ccccc1C(=O)OCCCCCCCCCCC | inactive | –
O=C1c2ccccc2C(=O)C1C(=O)C(c1ccccc1)c1ccc(Cl)cc1 (configuration not stated) | inconclusive: 71 µM [inhibitor, partial curve] | –
O=S1OC[C@@H]2[C@H](CO1)[C@]1(Cl)C(Cl)=C(Cl)[C@@]2(Cl)C1(Cl)Cl (some centres not stated) | inconclusive: 63.3 µM [inhibitor, partial curve] | –
CCCCCCCCCCCCCCn1cc[n+](C)c1 | inconclusive: 0.282 µM [inhibitor, single point] | –
CC(C)c1ccc(CO)cc1 | inconclusive: 39.9 µM [inhibitor, partial curve] and inactive | –
CC(C)(c1ccccc1)c1ccc(O)cc1 | inconclusive: 79 µM [inhibitor, single point] | –
O=[N+]([O-])C(Br)(CO)CO | – | inactive: 1.33%
CCCCC(CC)COC(=O)c1ccccc1C(=O)OCC(CC)CCCC (configuration not stated) | inconclusive: 71 µM [inhibitor, partial curve] | –
CC(C)(C)c1ccc(OP(=O)(Oc2ccccc2)Oc2ccccc2)cc1 | – | inactive: -21.5%
Cc1cc(C)c(C(=O)P(=O)(C(=O)c2c(C)cc(C)cc2C)c2ccccc2)c(C)c1 | inconclusive: 79.6 µM [inhibitor, partial curve, poor fit] | –
CNC(=O)Oc1ccccc1C1OCCO1 | inconclusive: 39.7 µM [inhibitor, partial curve] | –
NNC(N)=S | inconclusive: 58.6 µM [inhibitor, partial curve] | –
CCCCC(CC)COC(=O)Cl (configuration not stated) | inconclusive: 40 µM [inhibitor, partial curve] | –
CC1(C)C(C=C(Cl)Cl)C1C(=O)OC(C#N)c1ccc(F)c(Oc2ccccc2)c1 (configuration not stated) | active: 28.3 µM | –
CCCN(CC)CC1COC2(CCC(C(C)(C)C)CC2)O1 (configuration not stated) | active: 12.6 µM | –
CCOP(=S)(OCC)Oc1nc(Cl)c(Cl)cc1Cl | inconclusive: 63.5 µM [inhibitor, partial curve] and inconclusive: 31.7 µM [inhibitor, partial curve] | –
N#Cc1c(Cl)c(Cl)c(Cl)c(C#N)c1Cl | active: 34.9 µM and inactive | –
Clc1nc(Cl)nc(Cl)n1 | inconclusive: 15.6 µM [inhibitor, full curve] | –
Nc1ccccc1C(=O)OCCc1ccccc1 | inconclusive: 40.1 µM [inhibitor, partial curve] and inconclusive: 39.9 µM [inhibitor, partial curve] | –

Some of the entries so far, in CSV form.
SMILES,Potency,"activity change, negative = inhibition"
CC1(C)C(C=C(Cl)Cl)C1C(=O)OC(C#N)c1ccc(F)c(Oc2ccccc2)c1 (configuration not stated),active: 28.3 µM,–
CCCN(CC)CC1COC2(CCC(C(C)(C)C)CC2)O1 (configuration not stated),active: 12.6 µM,–
